In PubChem BioAssay AID248 (DTP/NCI, 2004):
The list is a part of this screen's results and no random one: it gathers tests that were run many times, whatever their T/C, doses with no T/C, and many T/C values between a quarter and a half above the control. Further doses and runs are listed elsewhere. T/C gives the treated animals as a percentage of the vehicle group. Some doses have a count of surviving animals in place of a T/C: the source holds a T/C of zero for them, seemingly a mark for toxic or unscored doses. Some doses without a T/C left all or most animals alive at the check, yet need not have been tolerated: survival well below the control is almost never listed, so the zero probably covers shortened survival too. Counts of survivors are from the toxicity check (mostly the fifth day) where no day follows; animals may have died later. Schedules are NCI's codes, read here as Q, the interval in days (D) or hours (H), X, the number of doses. Some doses were run more than once; the results are listed from low to high. Some schedules carry Z or #; the key to these is not given. For survival time, this PubChem deposit counts one and a half times the control or more as active, and values a quarter to a half above the control carry no call in these data; other NCI protocols may use other cut-offs.

Tested on: L1210 leukemia ip in BDF1 mice, survival T/C
Assay: NCI In Vivo Anticancer Drug Screen. Data for tumor model L1210 Leukemia (intraperitoneal) in B6D2F1 (BDF1) mice
Conditions: T/C endpoint: mean survival time, higher T/C = longer survival
[1] = dose: 150.0 mg/kg/injection, schedule: Q01DX009 (ip), vehicle: Klucel (hydroxypropylcellulose) (HPC)
[2] = dose: 400.0 mg/kg/injection, schedule: Q04DX003 (ip), vehicle: saline with Tween-80

## Cc1ccccc1[P+](Cc1ccccc1)(c1ccccc1C)c1ccccc1C
dose: 75.0 mg/kg/injection, schedule: Q01DX001 (ip), vehicle: carboxymethylcellulose (CMC)
  survivor count: 0 of 6
dose: 150.0 mg/kg/injection, schedule: Q01DX001 (ip), vehicle: carboxymethylcellulose (CMC)
  survivor count: 0 of 6
dose: 300.0 mg/kg/injection, schedule: Q01DX001 (ip), vehicle: carboxymethylcellulose (CMC)
  survivor count: 0 of 6

## CCCCOC(=O)C#CC(=O)OCCCC
dose: 25.0 mg/kg/injection, schedule: Q01DX009 (ip), vehicle: carboxymethylcellulose (CMC)
  survivor count: 5 of 6
dose: 50.0 mg/kg/injection, schedule: Q04DX002 (ip), vehicle: carboxymethylcellulose (CMC)
  survivor count: 6 of 6

## CC(=O)N(CCCc1ccccc1)C(C)(C)C
dose: 200.0 mg/kg/injection, schedule: Q01DX009 (ip), vehicle: saline
  survivor count: 0 of 6
dose: 400.0 mg/kg/injection, schedule: Q01DX001 (ip), vehicle: saline
  survivor count: 0 of 6

## CN(C)N=Nc1ccccc1C(=O)NNC(N)=S
dose: 18.75 mg/kg/injection, schedule: Q01DX009 (ip), vehicle: Klucel (hydroxypropylcellulose) (HPC)
  survivor count: 5 of 6
dose: 37.5 mg/kg/injection, schedule: Q01DX009 (ip), vehicle: Klucel (hydroxypropylcellulose) (HPC)
  T/C: 129 % of control
dose: 75.0 mg/kg/injection, schedule: Q01DX009 (ip), vehicle: Klucel (hydroxypropylcellulose) (HPC)
  T/C: 126 % of control
[1]
  T/C: 126 % of control
  survivor count: 3 of 6
dose: 300.0 mg/kg/injection, schedule: Q01DX009 (ip), vehicle: Klucel (hydroxypropylcellulose) (HPC)
  survivor count: 1 of 6 and 3 of 6

## O=C(COc1ccc(Cl)c(Cl)c1)NCc1ccc[n+](Cc2ccc(Cl)cc2S(=O)(=O)F)c1
[2]
  survivor count: 0 of 6

## CCCCC(=O)NC1=CC(=O)c2ccccc2C1=O
dose: 300.0 mg/kg/injection, schedule: Q01DX001 (ip), vehicle: saline
  survivor count: 2 of 6

## O=C(O)c1c(F)c(F)c(-c2c(F)c(F)c(F)c(F)c2F)c(F)c1F
dose: 400.0 mg/kg/injection, schedule: Q01DX001 (ip), vehicle: saline with Tween-80
  survivor count: 1 of 6

## CC(=O)OC(C#N)c1ccco1 (stereo unspecified)
dose: 25.0 mg/kg/injection, schedule: Q04DX003 (ip), vehicle: saline with Tween-80
  survivor count: 0 of 6
dose: 50.0 mg/kg/injection, schedule: Q04DX003 (ip), vehicle: saline with Tween-80
  survivor count: 0 of 6
dose: 100.0 mg/kg/injection, schedule: Q04DX003 (ip), vehicle: saline with Tween-80
  survivor count: 0 of 6
dose: 200.0 mg/kg/injection, schedule: Q04DX003 (ip), vehicle: saline with Tween-80
  survivor count: 0 of 6
[2]
  survivor count: 0 of 6

## CC[N+](C)(CC)CCNC(=O)C(c1ccccc1)c1ccccc1
dose: 200.0 mg/kg/injection, schedule: Q04DX003 (ip), vehicle: saline
  survivor count: 2 of 6
dose: 400.0 mg/kg/injection, schedule: Q04DX003 (ip), vehicle: saline
  survivor count: 0 of 6

## OCCOCC12c3ccccc3C3C(c4ccccc41)C32 (stereo unspecified)
dose: 100.0 mg/kg/injection, schedule: Q04DX002 (ip), vehicle: saline with Tween-80
  survivor count: 3 of 3

## O=C(O)CNC(=O)c1ccc(NC(=S)Nc2ccccc2)cc1
dose: 200.0 mg/kg/injection, schedule: Q01DX009 (ip), vehicle: Klucel (hydroxypropylcellulose) (HPC)
  survivor count: 5 of 6
dose: 400.0 mg/kg/injection, schedule: Q01DX009 (ip), vehicle: Klucel (hydroxypropylcellulose) (HPC)
  survivor count: 0 of 6

## CCOC(=O)/C=C/SCCCC(=O)O
dose: 400.0 mg/kg/injection, schedule: Q01DX009 (ip), vehicle: saline with Tween-80
  survivor count: 3 of 6

## O=C1c2cccc3cccc(c23)C(=O)N1CCCCCCCCN1C(=O)c2cccc3cccc(c23)C1=O
dose: 400.0 mg/kg/injection, schedule: Q04DX002 (ip), vehicle: Klucel (hydroxypropylcellulose) (HPC)
  survivor count: 2 of 3

## CCNCC#CCNCC
dose: 400.0 mg/kg/injection, schedule: Q01DX009 (ip), vehicle: saline
  survivor count: 2 of 6

## CN=C(NC)c1cccc(NC(=O)/C=C\c2ccc(/C=C/C(=O)Nc3cccc(C(=NC)NC)c3)cc2)c1
dose: 4.5 mg/kg/injection, schedule: Q01DX Z (ip), vehicle: carboxymethylcellulose (CMC)
  T/C: 127 % of control
dose: 4.5 mg/kg/injection, schedule: Q01DX Z (ip), vehicle: water
  T/C: 143 % of control
dose: 9.0 mg/kg/injection, schedule: Q01DX Z (ip), vehicle: water
  survivor count: 0 of 6
dose: 18.0 mg/kg/injection, schedule: Q01DX Z (ip), vehicle: water
  survivor count: 0 of 6
dose: 36.0 mg/kg/injection, schedule: Q01DX Z (ip), vehicle: water
  survivor count: 0 of 6

## CCCOCCOCCOC(C)Oc1ccc(OC)cc1 (stereo unspecified)
dose: 400.0 mg/kg/injection, schedule: Q04DX002 (ip), vehicle: saline
  survivor count: 3 of 3

## CSc1nc(N)nc2c1ncn2C1CC(O)C(CO)O1 (stereo unspecified)
dose: 400.0 mg/kg/injection, schedule: Q01DX005 (ip), vehicle: saline
  T/C: 126 % of control
